According to article PMC4778918, “Signal Transduction at the Domain Interface of Prokaryotic Pentameric Ligand-Gated Ion Channels” (PLoS Biology, 2016):

Test system: ELIC R91A/F116A
Format: binding, Erwinia chrisanthemi
[1] = ITC, acetylcholine, Molar Ratio 0.11
[2] = ITC, acetylcholine, Molar Ratio 0.55
[3] = ITC, acetylcholine, Molar Ratio 0.99
[4] = ITC, acetylcholine, Molar Ratio 1.42
[5] = ITC, acetylcholine, Molar Ratio 1.85
[6] = ITC, acetylcholine, Molar Ratio 2.28
[7] = ITC, acetylcholine, Molar Ratio 2.69
[8] = ITC, acetylcholine, Molar Ratio 3.11
[9] = ITC, acetylcholine, Molar Ratio 3.52
[10] = ITC, acetylcholine, Molar Ratio 4.33
[11] = ITC, acetylcholine, Molar Ratio 4.73
[12] = ITC, acetylcholine, Molar Ratio 5.12
[13] = ITC, acetylcholine, Molar Ratio 5.51
[14] = ITC, acetylcholine, Molar Ratio 5.89
[15] = ITC, acetylcholine, Molar Ratio 6.27
[16] = ITC, acetylcholine, Molar Ratio 6.65
[17] = ITC, acetylcholine, Molar Ratio 7.02
[18] = ITC, acetylcholine, Molar Ratio 7.39
[19] = ITC, acetylcholine, Molar Ratio 7.84
[20] = ITC, acetylcholine, Molar Ratio 8.20
[21] = ITC, acetylcholine, Molar Ratio 8.55
[22] = ITC, acetylcholine, Molar Ratio 8.90
[23] = ITC, acetylcholine, Molar Ratio 9.24
[24] = ITC, acetylcholine, Molar Ratio 9.58
[25] = ITC, acetylcholine, Molar Ratio 9.91
[26] = ITC, acetylcholine, Molar Ratio 10.25
[27] = ITC, acetylcholine, Molar Ratio 10.57
[28] = ITC, acetylcholine, Molar Ratio 10.89
[29] = ITC, acetylcholine, Molar Ratio 11.21
[30] = ITC, acetylcholine, Molar Ratio 11.52
[31] = ITC, acetylcholine, Molar Ratio 11.83
[32] = ITC, acetylcholine, Molar Ratio 12.14
[33] = ITC, acetylcholine, Molar Ratio 12.44
[34] = ITC, acetylcholine, Molar Ratio 12.73
[35] = ITC, acetylcholine, Molar Ratio 13.02
[36] = ITC, acetylcholine, Molar Ratio 13.31

With `CC(=O)OCC[N+](C)(C)C` [acetylcholine] the “kcal/mol (fit)” value was -9.26 kcal/mol, the “kcal/mol (meas.)” value was -9.00 kcal/mol and the “kcal/mol (fit)” value [1] was -51.59 kcal/mol. For the same compound, the “kcal/mol (meas.)” value [1] was -51.95 kcal/mol, the “kcal/mol (fit)” value [2] was -39.57 kcal/mol and the “kcal/mol (meas.)” value [2] was -38.33 kcal/mol. For the same compound, the “kcal/mol (fit)” value [3] was -31.18 kcal/mol, the “kcal/mol (meas.)” value [3] was -31.97 kcal/mol and the “kcal/mol (fit)” value [4] was -25.11 kcal/mol. The “kcal/mol (meas.)” value [4] was -24.37 kcal/mol, the “kcal/mol (fit)” value [5] was -20.59 kcal/mol and the “kcal/mol (meas.)” value [5] was -21.37 kcal/mol. The “kcal/mol (fit)” value [6] was -17.15 kcal/mol, the “kcal/mol (meas.)” value [6] was -19.57 kcal/mol and the “kcal/mol (fit)” value [7] was -14.48 kcal/mol. For the same compound, the “kcal/mol (meas.)” value [7] was -13.62 kcal/mol, the “kcal/mol (fit)” value [8] was -12.35 kcal/mol and the “kcal/mol (meas.)” value [8] was -11.58 kcal/mol. The “kcal/mol (fit)” value [9] was -10.65 kcal/mol, the “kcal/mol (meas.)” value [9] was -9.76 kcal/mol and the “kcal/mol (fit)” value [10] was -8.11 kcal/mol. The “kcal/mol (meas.)” value [10] was -7.34 kcal/mol, the “kcal/mol (fit)” value [11] was -7.15 kcal/mol and the “kcal/mol (meas.)” value [11] was -8.22 kcal/mol. For the same compound, the “kcal/mol (fit)” value [12] was -6.34 kcal/mol, the “kcal/mol (meas.)” value [12] was -6.86 kcal/mol and the “kcal/mol (fit)” value [13] was -5.66 kcal/mol. For the same compound, the “kcal/mol (meas.)” value [13] was -6.37 kcal/mol, the “kcal/mol (fit)” value [14] was -5.07 kcal/mol and the “kcal/mol (meas.)” value [14] was -4.30 kcal/mol. The “kcal/mol (fit)” value [15] was -4.56 kcal/mol, the “kcal/mol (meas.)” value [15] was -3.95 kcal/mol and the “kcal/mol (fit)” value [16] was -4.12 kcal/mol. The “kcal/mol (meas.)” value [16] was -3.80 kcal/mol, the “kcal/mol (fit)” value [17] was -3.74 kcal/mol and the “kcal/mol (meas.)” value [17] was -3.52 kcal/mol. For the same compound, the “kcal/mol (fit)” value [18] was -3.40 kcal/mol, the “kcal/mol (meas.)” value [18] was -3.27 kcal/mol and the “kcal/mol (fit)” value [19] was -3.03 kcal/mol. The “kcal/mol (meas.)” value [19] was -3.07 kcal/mol, the “kcal/mol (fit)” value [20] was -2.78 kcal/mol and the “kcal/mol (meas.)” value [20] was -2.61 kcal/mol. For the same compound, the “kcal/mol (fit)” value [21] was -2.55 kcal/mol, the “kcal/mol (meas.)” value [21] was -2.48 kcal/mol and the “kcal/mol (fit)” value [22] was -2.34 kcal/mol. The “kcal/mol (meas.)” value [22] was -2.53 kcal/mol, the “kcal/mol (fit)” value [23] was -2.16 kcal/mol and the “kcal/mol (meas.)” value [23] was -2.32 kcal/mol. The “kcal/mol (fit)” value [24] was -1.99 kcal/mol, the “kcal/mol (meas.)” value [24] was -2.43 kcal/mol and the “kcal/mol (fit)” value [25] was -1.84 kcal/mol. For the same compound, the “kcal/mol (meas.)” value [25] was -1.89 kcal/mol, the “kcal/mol (fit)” value [26] was -1.70 kcal/mol and the “kcal/mol (meas.)” value [26] was -2.94 kcal/mol. For the same compound, the “kcal/mol (fit)” value [27] was -1.58 kcal/mol, the “kcal/mol (meas.)” value [27] was -1.59 kcal/mol and the “kcal/mol (fit)” value [28] was -1.46 kcal/mol. For the same compound, the “kcal/mol (meas.)” value [28] was -1.01 kcal/mol, the “kcal/mol (fit)” value [29] was -1.36 kcal/mol and the “kcal/mol (meas.)” value [29] was -1.30 kcal/mol. The “kcal/mol (fit)” value [30] was -1.26 kcal/mol, the “kcal/mol (meas.)” value [30] was -1.16 kcal/mol and the “kcal/mol (fit)” value [31] was -1.17 kcal/mol. For the same compound, the “kcal/mol (meas.)” value [31] was -1.01 kcal/mol, the “kcal/mol (fit)” value [32] was -1.09 kcal/mol and the “kcal/mol (meas.)” value [32] was -1.06 kcal/mol. The “kcal/mol (fit)” value [33] was -1.01 kcal/mol, the “kcal/mol (meas.)” value [33] was -0.72 kcal/mol and the “kcal/mol (fit)” value [34] was -0.94 kcal/mol. The “kcal/mol (meas.)” value [34] was -0.57 kcal/mol, the “kcal/mol (fit)” value [35] was -0.88 kcal/mol and the “kcal/mol (meas.)” value [35] was -0.43 kcal/mol. The “kcal/mol (fit)” value [36] was -0.82 kcal/mol and the “kcal/mol (meas.)” value [36] was -1.03 kcal/mol.

Like-named read-outs stand apart in the source and are kept apart here.
